No constants are given. Whether binding was seen depends on the method and setting. A result given as binding can be weak or reduced; the word gives no strength. For part of these data: Sequences can lack the tags named with a protein.
Experiments:
[1] = molecular target: 6xHis-Flag affinity tagged Orf63 from lambda bacteriophage (phage λ); test: NMR titration; 15N-HSQC of 0.48 mM 15N-Orf63 (monomeric concentration) with 0.12, 0.24, 0.36, 0.48 and 0.60 mM peptide in PBS pH 7.4; chemical shift perturbation mapping; both purified
[2] = molecular target: 6xHis-Flag affinity tagged Orf63 from lambda bacteriophage (phage λ); test: NMR titration; single 2:1 mixture of ubiquitin fusion protein and 15N-labelled Orf63 dimer; chemical shift and line broadening changes read; both purified

Binder	binding [1]	binding [2]
DTKELILAIARKVKEMIKNS (designed binder) [designed Orf63 binding peptide … (unlabelled synthetic peptide)]	binds	
GGLVPRGSGDTKELILAIARKVKEMIKNS (designed binder) [6xHis-tagged ubiquitin fusion protein with the designed Orf63 binding peptide]		binds
GGLVPRGSGMAIAHAATEYVFADFVLK [6xHis-tagged ubiquitin fusion protein with an unrelated peptide]		no binding (tested: 2:1 mixture)
